According to patent US11248022B2, “Glypican-3 peptide reagents and methods” (THE REGENTS OF THE UNIVERSITY OF MICHIGAN, priority 2017, dated 2022):

Tests used:
Hep3B xenograft tumors = assay: Ex vivo confocal validation on Hep3B xenograft sections and normal liver; design: species or system mice; conditions: mouse xenograft sections
Text: The specimens were also sectioned for collection of confocal images to perform microscopic validation of peptide binding ex vivo.

human HCC = assay: Immunofluorescence on human liver biopsies ex vivo
Text: Specific peptide binding to human HCC was confirmed on patient biopsies (n=41) ex vivo from University of Michigan Hospital. […] Antibody staining of the same tissue confirmed minimal GPC3 expression, FIG. 15B. Binding by ALL*-Cy5.5 peptide and AF488-labeled anti-GPC3 antibody co-localized on normal liver specimen with Pearson's correlation coefficient of p=0.62, FIG. 15C. Co-stained regions were also imaged at 40×, FIG. 15D and 100× (dashed box in Panel D) magnifications, FIG. 15E.
Quantitative comparison of ALL*-Cy5.5 binding to human HCC with normal liver, adenoma and cirrhosis tissue was summarized in FIG. 15U.

ALLANHEELFQT (SEQ ID NO: 1) peptide labeled with Cy5.5 via a GGGSK linker on the C-terminus (C-terminal GGGSK linker with Cy5.5) [ALL*-Cy5.5]
area under curve AUC (ROC) (Hep3B xenograft tumors; HCC from normal liver): 0.98
sensitivity for distinguishing HCC from normal liver (ROC) (Hep3B xenograft tumors): 96.2%
specificity for distinguishing HCC from normal liver (ROC) (Hep3B xenograft tumors): 92.3%
area under curve AUC (ROC) (human HCC; HCC from all non-HCC tissue): 0.98
sensitivity (ROC) (human HCC; HCC from all non-HCC tissue): 93%
specificity (ROC) (human HCC; HCC from all non-HCC tissue): 88%
area under curve AUC (ROC) (human HCC; HCC from cirrhosis): 0.97
sensitivity (ROC) (human HCC; HCC from cirrhosis): 87%
specificity (ROC) (human HCC; HCC from cirrhosis): 100%
Pearson's correlation coefficient of co-localization with AF488-labeled anti-GPC3 antibody (human HCC; HCC tissue): 0.66
Pearson's correlation coefficient of co-localization with AF488-labeled anti-GPC3 antibody (human HCC; adenoma tissue): 0.63
Pearson's correlation coefficient of co-localization with AF488-labeled anti-GPC3 antibody (human HCC; cirrhotic liver tissue): 0.57
Pearson's correlation coefficient of co-localization with AF488-labeled anti-GPC3 antibody (human HCC; normal liver specimen): 0.62
